Results on 17 substances are retold here after paper doi:10.1101/2020.01.03.892703.

Chains of the proteins cited; added tags and fusions are not shown.
UniProt Q9WUK4: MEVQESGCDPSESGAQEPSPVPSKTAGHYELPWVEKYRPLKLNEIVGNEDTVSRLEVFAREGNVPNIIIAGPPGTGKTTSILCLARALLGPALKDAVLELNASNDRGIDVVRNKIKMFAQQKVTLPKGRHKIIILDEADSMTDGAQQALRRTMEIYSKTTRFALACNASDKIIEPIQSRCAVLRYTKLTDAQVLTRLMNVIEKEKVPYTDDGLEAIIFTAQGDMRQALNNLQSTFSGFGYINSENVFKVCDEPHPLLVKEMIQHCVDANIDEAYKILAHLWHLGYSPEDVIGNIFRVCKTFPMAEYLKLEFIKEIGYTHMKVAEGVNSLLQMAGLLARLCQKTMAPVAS
UniProt Q99J62: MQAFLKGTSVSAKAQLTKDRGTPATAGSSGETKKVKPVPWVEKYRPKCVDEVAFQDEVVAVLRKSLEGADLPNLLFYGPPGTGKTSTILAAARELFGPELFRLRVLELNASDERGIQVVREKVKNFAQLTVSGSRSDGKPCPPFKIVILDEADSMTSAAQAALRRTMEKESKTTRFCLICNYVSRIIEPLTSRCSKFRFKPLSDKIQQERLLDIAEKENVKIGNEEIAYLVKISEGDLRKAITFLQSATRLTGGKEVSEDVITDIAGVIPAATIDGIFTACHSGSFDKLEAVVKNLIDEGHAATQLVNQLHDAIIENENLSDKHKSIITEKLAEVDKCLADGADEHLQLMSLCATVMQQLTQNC
UniProt Q6PGF5: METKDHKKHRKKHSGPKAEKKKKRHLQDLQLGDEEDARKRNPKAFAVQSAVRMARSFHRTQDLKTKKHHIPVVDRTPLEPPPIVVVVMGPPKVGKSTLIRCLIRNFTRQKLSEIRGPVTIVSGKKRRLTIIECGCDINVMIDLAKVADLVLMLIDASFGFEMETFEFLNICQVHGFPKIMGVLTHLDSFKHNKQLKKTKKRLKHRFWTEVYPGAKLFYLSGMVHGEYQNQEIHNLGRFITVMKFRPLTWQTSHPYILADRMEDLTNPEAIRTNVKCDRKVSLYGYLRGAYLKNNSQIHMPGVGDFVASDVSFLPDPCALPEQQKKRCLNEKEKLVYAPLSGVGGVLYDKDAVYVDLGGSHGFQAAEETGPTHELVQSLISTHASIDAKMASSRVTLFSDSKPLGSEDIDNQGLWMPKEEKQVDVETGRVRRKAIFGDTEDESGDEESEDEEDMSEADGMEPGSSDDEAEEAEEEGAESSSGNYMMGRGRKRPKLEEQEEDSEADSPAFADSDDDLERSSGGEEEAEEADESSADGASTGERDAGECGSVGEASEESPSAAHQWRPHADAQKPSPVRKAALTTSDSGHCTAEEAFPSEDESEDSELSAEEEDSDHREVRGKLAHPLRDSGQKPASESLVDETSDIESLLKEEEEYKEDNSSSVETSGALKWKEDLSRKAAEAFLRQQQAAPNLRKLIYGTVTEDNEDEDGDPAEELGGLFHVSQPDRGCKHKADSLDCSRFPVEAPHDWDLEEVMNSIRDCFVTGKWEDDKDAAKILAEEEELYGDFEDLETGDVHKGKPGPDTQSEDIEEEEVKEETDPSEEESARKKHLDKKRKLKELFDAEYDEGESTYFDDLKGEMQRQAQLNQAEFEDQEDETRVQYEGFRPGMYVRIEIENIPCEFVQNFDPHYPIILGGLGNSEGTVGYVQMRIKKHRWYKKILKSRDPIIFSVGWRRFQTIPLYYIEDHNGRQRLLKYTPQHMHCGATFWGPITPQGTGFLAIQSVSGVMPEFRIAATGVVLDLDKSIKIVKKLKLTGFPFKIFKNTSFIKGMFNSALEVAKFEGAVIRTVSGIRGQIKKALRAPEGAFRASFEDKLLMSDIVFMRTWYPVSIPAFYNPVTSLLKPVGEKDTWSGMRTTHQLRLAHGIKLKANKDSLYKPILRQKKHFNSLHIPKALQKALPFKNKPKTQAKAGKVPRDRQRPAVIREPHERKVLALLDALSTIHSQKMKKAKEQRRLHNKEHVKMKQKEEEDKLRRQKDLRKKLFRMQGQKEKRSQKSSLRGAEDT
UniProt Q8K0H5: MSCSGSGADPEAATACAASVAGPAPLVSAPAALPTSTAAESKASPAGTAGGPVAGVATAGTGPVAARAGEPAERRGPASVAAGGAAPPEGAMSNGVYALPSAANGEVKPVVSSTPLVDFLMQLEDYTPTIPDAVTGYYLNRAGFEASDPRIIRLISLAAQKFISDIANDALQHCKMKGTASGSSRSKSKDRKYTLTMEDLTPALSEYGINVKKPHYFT
UniProt P43274: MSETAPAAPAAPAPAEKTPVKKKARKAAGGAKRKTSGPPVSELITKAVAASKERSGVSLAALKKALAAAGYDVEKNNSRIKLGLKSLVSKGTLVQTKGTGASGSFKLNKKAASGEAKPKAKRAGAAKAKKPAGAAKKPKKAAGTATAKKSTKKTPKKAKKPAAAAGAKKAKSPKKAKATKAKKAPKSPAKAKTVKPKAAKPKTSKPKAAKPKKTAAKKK
UniProt Q9JJZ6: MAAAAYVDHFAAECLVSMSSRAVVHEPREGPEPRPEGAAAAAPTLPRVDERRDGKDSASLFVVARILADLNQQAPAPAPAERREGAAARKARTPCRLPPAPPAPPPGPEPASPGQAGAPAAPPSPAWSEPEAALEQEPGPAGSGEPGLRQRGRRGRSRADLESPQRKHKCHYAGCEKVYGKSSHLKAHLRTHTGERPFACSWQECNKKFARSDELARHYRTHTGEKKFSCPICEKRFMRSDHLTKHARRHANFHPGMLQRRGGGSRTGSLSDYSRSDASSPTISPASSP
UniProt P43276: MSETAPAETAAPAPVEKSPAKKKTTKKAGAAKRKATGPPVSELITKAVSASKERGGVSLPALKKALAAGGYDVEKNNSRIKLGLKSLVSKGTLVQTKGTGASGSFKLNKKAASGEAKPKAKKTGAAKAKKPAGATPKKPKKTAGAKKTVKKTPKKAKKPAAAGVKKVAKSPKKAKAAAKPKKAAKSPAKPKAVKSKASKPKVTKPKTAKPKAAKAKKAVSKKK
UniProt P10922: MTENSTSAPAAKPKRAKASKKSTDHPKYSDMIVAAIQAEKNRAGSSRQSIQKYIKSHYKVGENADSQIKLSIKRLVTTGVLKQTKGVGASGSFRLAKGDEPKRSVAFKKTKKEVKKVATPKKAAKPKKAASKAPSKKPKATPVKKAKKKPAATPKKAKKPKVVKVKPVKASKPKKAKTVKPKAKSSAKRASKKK
UniProt P97868: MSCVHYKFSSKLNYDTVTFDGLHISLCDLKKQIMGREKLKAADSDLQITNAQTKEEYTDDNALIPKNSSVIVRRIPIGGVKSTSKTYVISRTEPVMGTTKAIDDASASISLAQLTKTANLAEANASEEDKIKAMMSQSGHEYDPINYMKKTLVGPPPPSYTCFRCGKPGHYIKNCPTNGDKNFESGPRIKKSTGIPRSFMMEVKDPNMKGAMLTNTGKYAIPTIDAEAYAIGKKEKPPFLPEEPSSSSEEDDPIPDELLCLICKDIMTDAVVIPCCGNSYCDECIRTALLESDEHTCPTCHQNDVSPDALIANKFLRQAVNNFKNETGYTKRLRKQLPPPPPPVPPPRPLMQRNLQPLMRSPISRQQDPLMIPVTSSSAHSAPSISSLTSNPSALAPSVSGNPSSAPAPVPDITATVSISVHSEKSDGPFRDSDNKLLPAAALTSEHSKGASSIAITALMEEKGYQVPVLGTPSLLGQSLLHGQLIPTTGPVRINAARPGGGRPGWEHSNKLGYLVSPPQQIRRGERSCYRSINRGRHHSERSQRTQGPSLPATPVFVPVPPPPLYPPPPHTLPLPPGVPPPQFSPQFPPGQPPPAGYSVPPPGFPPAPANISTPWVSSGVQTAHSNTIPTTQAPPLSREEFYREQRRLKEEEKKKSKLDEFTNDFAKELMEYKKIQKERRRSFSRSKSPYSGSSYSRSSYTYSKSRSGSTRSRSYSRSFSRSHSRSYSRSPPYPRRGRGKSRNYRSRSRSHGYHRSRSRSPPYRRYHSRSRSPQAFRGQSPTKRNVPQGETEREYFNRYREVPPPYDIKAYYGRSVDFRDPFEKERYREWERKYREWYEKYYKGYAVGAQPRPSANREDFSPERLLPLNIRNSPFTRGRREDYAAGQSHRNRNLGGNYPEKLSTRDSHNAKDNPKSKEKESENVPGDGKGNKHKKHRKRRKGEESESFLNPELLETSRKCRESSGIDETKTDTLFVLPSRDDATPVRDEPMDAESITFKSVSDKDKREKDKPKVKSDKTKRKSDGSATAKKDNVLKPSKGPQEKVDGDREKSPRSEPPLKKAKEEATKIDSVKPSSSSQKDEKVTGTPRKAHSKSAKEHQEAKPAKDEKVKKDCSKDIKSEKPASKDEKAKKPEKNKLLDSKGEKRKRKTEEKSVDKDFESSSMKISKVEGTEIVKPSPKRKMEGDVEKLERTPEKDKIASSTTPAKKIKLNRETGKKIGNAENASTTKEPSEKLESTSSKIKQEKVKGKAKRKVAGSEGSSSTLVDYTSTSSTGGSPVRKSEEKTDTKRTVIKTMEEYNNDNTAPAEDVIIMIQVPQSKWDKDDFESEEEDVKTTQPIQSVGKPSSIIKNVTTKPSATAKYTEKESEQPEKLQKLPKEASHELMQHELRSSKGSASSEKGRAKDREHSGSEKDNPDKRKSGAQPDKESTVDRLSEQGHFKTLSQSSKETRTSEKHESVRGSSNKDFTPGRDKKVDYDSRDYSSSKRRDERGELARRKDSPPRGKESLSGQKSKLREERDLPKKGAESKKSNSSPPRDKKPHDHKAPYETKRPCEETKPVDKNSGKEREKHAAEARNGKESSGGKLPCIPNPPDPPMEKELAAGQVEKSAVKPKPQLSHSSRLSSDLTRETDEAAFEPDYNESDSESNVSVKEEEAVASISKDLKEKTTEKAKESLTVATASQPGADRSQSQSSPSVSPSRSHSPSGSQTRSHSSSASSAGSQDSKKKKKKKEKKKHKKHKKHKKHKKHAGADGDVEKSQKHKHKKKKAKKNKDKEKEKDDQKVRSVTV
UniProt Q9D0F6: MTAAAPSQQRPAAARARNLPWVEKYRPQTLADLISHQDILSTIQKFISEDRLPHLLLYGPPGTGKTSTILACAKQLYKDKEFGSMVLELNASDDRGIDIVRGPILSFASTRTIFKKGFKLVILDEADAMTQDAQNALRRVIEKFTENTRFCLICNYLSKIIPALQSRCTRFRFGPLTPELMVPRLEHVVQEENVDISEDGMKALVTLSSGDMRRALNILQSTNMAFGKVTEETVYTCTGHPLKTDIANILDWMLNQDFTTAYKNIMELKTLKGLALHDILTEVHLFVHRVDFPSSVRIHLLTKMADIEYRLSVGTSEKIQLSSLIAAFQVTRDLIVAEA
UniProt Q9CW03: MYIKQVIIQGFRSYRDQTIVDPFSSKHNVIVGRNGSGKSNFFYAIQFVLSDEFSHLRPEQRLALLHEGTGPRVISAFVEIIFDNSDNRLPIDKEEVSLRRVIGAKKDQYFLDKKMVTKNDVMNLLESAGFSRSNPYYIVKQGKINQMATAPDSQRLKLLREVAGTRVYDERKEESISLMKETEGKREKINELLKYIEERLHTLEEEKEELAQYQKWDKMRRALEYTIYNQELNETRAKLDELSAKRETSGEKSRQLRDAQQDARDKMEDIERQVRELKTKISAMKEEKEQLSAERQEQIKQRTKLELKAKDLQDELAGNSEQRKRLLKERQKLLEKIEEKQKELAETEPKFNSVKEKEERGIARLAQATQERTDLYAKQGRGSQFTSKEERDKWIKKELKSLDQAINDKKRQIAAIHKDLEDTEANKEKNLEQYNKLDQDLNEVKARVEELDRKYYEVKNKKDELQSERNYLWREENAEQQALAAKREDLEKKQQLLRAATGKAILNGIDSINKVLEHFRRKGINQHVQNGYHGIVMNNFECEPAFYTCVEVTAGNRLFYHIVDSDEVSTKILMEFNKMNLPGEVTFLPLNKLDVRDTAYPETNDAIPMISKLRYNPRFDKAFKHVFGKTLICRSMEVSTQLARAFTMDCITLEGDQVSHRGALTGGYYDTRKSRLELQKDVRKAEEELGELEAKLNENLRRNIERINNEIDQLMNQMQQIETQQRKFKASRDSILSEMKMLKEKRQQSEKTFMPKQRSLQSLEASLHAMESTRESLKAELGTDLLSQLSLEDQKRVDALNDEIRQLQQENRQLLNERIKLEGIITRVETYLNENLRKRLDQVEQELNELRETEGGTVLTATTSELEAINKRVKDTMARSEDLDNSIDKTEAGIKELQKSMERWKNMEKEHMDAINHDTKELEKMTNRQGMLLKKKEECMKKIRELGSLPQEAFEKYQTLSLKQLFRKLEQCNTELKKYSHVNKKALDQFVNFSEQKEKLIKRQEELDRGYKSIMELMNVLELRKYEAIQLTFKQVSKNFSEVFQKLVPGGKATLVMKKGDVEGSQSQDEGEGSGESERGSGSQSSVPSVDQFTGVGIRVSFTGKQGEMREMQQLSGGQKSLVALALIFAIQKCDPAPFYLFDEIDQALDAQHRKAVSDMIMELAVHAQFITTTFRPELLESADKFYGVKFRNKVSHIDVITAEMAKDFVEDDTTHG

No constants are given. Whether binding was seen depends on the method and setting. Binding seen in cells or lysates may run through a third protein. These calls come from enrichment with a bait or labelling near it, and not all partners need be listed. Where a sequence is shown, tags or fusion partners need not be part of it.

The target in the assay is T1, biotin-tagged XPF (mouse (endogenous knock-in in MEFs)) (UniProt Q9QZD4).
T1 sequence (chain, biotin on the 15 aa tag (by the BirA ligase in vivo)): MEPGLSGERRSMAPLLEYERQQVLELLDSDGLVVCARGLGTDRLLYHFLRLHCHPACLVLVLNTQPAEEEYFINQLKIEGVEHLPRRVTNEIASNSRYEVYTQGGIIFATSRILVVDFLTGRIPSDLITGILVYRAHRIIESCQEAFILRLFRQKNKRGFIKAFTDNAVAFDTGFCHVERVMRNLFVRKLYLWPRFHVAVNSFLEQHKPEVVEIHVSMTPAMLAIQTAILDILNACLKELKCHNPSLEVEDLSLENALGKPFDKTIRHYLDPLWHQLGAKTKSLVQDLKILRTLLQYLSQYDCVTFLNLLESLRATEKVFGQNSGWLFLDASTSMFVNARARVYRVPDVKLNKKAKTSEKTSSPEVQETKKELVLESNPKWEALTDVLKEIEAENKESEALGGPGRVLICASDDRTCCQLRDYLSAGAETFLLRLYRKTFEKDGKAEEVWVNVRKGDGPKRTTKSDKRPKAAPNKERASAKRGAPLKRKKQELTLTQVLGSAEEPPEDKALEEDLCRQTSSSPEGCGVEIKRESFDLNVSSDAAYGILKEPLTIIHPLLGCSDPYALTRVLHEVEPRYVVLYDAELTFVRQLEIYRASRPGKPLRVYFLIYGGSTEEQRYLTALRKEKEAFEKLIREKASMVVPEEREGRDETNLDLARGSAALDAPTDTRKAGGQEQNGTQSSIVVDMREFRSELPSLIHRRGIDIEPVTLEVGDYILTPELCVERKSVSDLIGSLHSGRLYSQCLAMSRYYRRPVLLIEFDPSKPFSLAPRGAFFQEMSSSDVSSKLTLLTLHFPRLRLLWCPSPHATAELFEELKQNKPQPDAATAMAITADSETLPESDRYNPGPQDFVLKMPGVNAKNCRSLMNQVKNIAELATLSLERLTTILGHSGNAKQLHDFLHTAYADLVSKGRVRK
As to the kind of experiment: affinity purification with mass spectrometry.
MDN1 (from UniProt A2ANY6 1-5589): the binding entry was “binds”.
Next, RCF2 (from UniProt Q9WUK4 1-349): “binds”; RCF4 (from UniProt Q99J62 1-364): “binds”; BMS1 (from UniProt Q6PGF5 1-1284): “binds”.
Next, SSRP1 (from UniProt Q08943 1-708): “binds”; SMARCA5 (from UniProt Q91ZW3 1-1051): “binds”; TAF10 (from UniProt Q8K0H5 1-218): “binds”.
Take TAF6 (from UniProt Q62311 1-678): the binding result is “binds”.
Consider HIST1h1e (from UniProt P43274 1-219), for which the binding result is listed as “binds”.
Next, RCF3 (from UniProt Q8R323 1-356): “binds”.
For TAF4 (from UniProt E9QAP7 1-1042) the value was “binds”; for KLF13 (from UniProt Q9JJZ6 1-289), “binds”; for HIST1h1b (from UniProt P43276 1-223), “binds”.
For H1F0 (from UniProt P10922 1-194), the binding entry is “binds”.
RBBP6 (from UniProt P97868 1-1790): the binding entry is “binds”.
For RCF5 (from UniProt Q9D0F6 1-339) the value was “binds”; for SMC3 (from UniProt Q9CW03 1-1217), “binds”.
